# ± gives the standard deviation of the averaged measurements. Only a part is listed here, and it is no random draw. The list shows a part of the results.
# Chains of the proteins cited; added tags and fusions are not shown. Lines headed by an entry give the natural chain unless they say otherwise; changes in a name come on top.
# UniProt Q9Y478: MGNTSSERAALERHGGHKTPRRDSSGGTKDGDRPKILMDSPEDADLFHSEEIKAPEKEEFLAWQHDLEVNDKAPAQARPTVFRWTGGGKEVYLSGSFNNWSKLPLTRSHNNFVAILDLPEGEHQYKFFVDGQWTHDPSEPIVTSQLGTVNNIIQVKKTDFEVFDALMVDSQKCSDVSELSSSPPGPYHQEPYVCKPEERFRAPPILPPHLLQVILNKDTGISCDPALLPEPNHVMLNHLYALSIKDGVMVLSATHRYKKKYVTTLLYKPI
# UniProt Q9Y6W3: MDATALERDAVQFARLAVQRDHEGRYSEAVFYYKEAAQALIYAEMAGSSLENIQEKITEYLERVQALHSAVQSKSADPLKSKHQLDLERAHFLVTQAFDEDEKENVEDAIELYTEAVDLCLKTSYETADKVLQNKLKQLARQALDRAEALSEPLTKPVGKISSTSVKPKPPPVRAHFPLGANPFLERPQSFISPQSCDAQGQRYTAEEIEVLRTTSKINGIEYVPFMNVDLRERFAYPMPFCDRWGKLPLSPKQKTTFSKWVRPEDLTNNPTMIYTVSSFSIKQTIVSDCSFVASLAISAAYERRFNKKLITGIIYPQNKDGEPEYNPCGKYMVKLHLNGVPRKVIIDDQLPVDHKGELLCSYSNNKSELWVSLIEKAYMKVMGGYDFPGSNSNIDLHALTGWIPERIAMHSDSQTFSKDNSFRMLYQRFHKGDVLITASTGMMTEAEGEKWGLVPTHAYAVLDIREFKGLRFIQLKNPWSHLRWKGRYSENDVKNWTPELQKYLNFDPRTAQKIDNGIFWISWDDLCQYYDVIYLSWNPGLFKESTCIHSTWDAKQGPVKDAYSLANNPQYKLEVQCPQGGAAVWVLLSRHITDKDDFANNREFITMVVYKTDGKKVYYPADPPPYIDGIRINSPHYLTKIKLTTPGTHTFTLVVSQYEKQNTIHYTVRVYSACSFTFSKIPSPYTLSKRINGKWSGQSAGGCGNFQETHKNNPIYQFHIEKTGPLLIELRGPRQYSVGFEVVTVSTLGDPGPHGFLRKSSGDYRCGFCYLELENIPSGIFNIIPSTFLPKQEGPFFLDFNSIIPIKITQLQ
# UniProt Q96RQ1: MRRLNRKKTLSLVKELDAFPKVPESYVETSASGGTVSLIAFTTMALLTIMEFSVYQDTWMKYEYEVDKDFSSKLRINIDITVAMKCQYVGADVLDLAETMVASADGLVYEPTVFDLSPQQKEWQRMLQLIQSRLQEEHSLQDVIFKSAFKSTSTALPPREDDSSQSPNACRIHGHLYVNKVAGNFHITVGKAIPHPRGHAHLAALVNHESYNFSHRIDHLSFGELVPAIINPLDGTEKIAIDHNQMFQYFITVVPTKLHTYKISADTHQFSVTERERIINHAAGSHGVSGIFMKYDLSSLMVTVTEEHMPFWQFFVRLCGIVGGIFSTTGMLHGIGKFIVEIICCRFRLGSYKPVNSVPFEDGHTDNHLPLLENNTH
# UniProt Q9Y385: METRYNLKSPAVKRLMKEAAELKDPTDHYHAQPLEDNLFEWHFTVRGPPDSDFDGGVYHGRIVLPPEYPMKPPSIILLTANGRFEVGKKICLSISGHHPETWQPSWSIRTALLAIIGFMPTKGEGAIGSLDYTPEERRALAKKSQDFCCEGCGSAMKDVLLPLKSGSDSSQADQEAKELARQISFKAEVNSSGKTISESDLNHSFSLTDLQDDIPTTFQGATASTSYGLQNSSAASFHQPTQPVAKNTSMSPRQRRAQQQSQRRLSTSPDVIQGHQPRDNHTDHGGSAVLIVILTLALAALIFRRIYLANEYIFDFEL
# UniProt Q00341: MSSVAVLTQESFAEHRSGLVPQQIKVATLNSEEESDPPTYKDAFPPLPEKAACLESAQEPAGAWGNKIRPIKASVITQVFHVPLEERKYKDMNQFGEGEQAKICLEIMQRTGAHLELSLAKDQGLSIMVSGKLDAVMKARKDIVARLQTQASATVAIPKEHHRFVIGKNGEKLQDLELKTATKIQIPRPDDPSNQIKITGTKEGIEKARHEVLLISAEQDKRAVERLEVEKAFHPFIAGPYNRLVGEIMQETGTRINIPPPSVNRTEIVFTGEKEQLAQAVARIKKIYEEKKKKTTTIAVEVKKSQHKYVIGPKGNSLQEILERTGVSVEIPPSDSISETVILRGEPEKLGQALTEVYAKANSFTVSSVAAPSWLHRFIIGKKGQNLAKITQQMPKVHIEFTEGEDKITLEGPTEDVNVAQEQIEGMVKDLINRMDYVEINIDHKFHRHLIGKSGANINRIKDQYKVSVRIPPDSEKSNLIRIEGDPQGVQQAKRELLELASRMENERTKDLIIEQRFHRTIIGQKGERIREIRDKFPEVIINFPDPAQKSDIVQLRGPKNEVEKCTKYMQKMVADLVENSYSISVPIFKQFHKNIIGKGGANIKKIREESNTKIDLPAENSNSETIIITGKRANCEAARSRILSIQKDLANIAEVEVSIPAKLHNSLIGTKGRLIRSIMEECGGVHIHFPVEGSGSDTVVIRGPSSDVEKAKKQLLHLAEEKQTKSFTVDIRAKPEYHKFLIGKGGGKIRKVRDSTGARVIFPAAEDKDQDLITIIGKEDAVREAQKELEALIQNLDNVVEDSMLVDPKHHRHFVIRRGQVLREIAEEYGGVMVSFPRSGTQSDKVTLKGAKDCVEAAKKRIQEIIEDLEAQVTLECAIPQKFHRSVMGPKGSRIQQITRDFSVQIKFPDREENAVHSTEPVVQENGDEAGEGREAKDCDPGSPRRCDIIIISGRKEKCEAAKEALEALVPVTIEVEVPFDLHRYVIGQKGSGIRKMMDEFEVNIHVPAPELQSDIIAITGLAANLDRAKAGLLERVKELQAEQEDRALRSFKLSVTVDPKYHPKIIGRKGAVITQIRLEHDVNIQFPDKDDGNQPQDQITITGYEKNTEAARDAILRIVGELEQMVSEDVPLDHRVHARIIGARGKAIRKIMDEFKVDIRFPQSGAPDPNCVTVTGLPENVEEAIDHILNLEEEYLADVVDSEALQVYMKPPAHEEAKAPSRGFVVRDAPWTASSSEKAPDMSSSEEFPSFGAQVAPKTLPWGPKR
# UniProt Q9BQ39: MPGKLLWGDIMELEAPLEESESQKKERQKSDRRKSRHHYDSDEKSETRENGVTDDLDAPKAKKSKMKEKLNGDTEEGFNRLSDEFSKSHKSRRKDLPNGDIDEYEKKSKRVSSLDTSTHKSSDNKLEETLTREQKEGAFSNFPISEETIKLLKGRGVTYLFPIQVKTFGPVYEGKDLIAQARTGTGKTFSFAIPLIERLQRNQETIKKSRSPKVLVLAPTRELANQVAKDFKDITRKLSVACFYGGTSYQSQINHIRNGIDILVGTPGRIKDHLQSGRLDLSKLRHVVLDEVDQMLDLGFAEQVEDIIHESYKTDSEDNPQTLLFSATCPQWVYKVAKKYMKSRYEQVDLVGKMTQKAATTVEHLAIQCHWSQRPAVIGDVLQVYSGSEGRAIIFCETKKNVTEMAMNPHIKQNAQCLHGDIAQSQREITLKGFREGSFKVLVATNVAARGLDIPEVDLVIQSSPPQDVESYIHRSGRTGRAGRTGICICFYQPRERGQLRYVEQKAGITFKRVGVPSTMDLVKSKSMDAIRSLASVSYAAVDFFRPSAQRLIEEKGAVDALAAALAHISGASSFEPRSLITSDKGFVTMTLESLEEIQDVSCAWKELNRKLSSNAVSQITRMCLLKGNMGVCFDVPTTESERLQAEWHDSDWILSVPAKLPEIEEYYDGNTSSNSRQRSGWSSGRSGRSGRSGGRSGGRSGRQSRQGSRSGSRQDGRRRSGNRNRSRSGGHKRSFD
# UniProt Q9NV06: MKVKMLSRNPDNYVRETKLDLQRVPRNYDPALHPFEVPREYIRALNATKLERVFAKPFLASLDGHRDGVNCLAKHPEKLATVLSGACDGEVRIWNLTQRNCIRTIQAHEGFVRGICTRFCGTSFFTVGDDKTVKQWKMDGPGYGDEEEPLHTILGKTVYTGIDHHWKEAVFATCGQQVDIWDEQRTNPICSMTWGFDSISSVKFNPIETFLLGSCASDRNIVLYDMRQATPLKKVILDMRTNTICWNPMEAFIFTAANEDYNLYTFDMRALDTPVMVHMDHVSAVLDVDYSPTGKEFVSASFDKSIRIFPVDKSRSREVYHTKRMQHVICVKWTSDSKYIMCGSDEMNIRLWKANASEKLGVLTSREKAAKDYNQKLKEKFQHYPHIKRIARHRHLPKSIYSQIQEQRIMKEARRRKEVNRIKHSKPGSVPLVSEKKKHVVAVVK
# UniProt Q9Y3D8, whole entry: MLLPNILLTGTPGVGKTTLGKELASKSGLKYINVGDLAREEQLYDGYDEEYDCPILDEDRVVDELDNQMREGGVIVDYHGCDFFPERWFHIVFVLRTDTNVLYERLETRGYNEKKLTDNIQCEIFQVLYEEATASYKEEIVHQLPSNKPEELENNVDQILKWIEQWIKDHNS
# UniProt Q9Y3E1: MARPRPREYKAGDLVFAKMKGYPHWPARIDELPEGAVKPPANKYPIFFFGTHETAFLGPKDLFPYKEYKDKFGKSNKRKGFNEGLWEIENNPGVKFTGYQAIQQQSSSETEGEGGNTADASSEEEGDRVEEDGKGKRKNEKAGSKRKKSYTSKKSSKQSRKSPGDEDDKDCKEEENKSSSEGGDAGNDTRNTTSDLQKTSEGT
# UniProt P49005: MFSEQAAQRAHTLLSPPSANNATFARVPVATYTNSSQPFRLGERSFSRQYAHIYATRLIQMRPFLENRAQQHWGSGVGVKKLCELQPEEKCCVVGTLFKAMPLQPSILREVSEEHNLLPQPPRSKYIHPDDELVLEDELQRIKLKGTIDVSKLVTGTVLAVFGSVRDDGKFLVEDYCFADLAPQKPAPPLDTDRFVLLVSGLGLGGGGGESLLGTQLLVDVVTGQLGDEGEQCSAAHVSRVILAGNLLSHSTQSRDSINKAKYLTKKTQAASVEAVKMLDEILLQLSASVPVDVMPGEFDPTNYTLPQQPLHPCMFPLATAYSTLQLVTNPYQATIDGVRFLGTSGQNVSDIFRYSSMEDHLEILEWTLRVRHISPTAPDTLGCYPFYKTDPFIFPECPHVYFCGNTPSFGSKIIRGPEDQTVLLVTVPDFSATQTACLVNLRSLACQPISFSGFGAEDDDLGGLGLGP
# UniProt P06493, whole entry, looked up: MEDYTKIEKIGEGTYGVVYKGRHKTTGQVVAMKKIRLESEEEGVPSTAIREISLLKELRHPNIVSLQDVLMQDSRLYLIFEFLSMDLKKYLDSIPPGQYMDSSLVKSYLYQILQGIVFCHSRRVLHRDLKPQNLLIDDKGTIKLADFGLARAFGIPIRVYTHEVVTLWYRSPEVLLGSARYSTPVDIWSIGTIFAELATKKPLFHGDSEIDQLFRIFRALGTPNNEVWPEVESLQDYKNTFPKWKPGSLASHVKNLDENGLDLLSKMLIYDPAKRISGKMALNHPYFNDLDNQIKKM
# UniProt P04632: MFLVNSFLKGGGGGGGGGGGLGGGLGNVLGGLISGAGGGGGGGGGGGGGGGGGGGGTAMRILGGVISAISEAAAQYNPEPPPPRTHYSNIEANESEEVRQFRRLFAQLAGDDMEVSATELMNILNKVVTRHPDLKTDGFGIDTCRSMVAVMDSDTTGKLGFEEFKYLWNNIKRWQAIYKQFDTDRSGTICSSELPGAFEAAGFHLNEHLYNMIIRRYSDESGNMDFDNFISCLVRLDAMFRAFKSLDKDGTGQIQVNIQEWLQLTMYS
# Assays:
# adenosine triphosphate = compound: Nc1ncnc2c1ncn2[C@@H]1O[C@H](COP(=O)(O)OP(=O)(O)OP(=O)(O)O)[C@@H](O)[C@H]1O [adenosine triphosphate]; assay: NP40-soluble protein abundance relative to vehicle (solubility fold change) (ratio); higher = more soluble protein in presence of ATP
# Procedure, shortened: (§1)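 Crude Jurkat lysate, prepared by Dounce homogenisation, was exposed to eight concentrations from 0.1 to 10 mM for 10 min at room temperature and then 3 min at 37 °C. Solubilisation used 0.8% NP40 with benzonase for 60 min at 4 °C, followed by ultracentrifugation and TMT labelling of the supernatant for LC-MS/MS. After vsn normalisation of intensities, each value is the fold change against the detergent-processed vehicle within each replicate, across three independent experiments.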
# guanosine triphosphate = compound: Nc1nc2c(ncn2[C@@H]2O[C@H](COP(=O)(O)OP(=O)(O)OP(=O)(O)O)[C@@H](O)[C@H]2O)c(=O)[nH]1 [guanosine triphosphate]; assay: NP40-soluble protein abundance relative to vehicle (solubility fold change) (ratio); higher = more soluble protein in presence of GTP
# Procedure, shortened: as §1
Target,NP40-soluble protein abundance (adenosine triphosphate; concentration: 1mM),NP40-soluble protein abundance (adenosine triphosphate; concentration: 2mM),NP40-soluble protein abundance (adenosine triphosphate; concentration: 4mM),NP40-soluble protein abundance (adenosine triphosphate; concentration: 6mM),NP40-soluble protein abundance (adenosine triphosphate; concentration: 8mM),NP40-soluble protein abundance (adenosine triphosphate; concentration: 10mM),NP40-soluble protein abundance (guanosine triphosphate; concentration: 0.1mM),NP40-soluble protein abundance (guanosine triphosphate; concentration: 0.5mM),NP40-soluble protein abundance (guanosine triphosphate; concentration: 1mM),NP40-soluble protein abundance (guanosine triphosphate; concentration: 2mM),NP40-soluble protein abundance (guanosine triphosphate; concentration: 4mM),NP40-soluble protein abundance (guanosine triphosphate; concentration: 6mM),NP40-soluble protein abundance (guanosine triphosphate; concentration: 8mM),NP40-soluble protein abundance (guanosine triphosphate; concentration: 10mM)
PRKAB1 (UniProt Q9Y478),0.898 ± 0.075,0.895 ± 0.086,0.845 ± 0.1,0.824 ± 0.092,0.828 ± 0.069,0.841 ± 0.08,–,–,–,–,–,–,–,–
CAPN7 (UniProt Q9Y6W3),1.08 ± 0.092,1.04 ± 0.042,1.07 ± 0.067,1.02 ± 0.088,1.03 ± 0.051,1.01 ± 0.029,–,–,–,–,–,–,–,–
UniProt Q9Y2Q9 and related entries,0.995 ± 0.17,0.914 ± 0.14,0.921 ± 0.13,0.931 ± 0.27,0.905 ± 0.19,0.823 ± 0.14,–,–,–,–,–,–,–,–
A0A087WU02|F8VPA6 and related entries (UniProt Q96RQ1),–,–,–,–,–,–,1.04 ± 0.096,1.02 ± 0.082,0.922 ± 0.042,0.885 ± 0.042,0.874 ± 0.074,0.886 ± 0.07,0.884 ± 0.071,0.859 ± 0.052
UBE2J1 (UniProt Q9Y385),0.952 ± 0.03,0.944 ± 0.07,0.933 ± 0.063,0.962 ± 0.029,0.921 ± 0.063,0.928 ± 0.065,–,–,–,–,–,–,–,–
A0A024R4E5 (UniProt Q00341),–,–,–,–,–,–,0.973 ± 0.024,0.945 ± 0.0094,0.926 ± 0.015,0.908 ± 0.015,0.923 ± 0.031,0.928 ± 0.017,0.978 ± 0.034,0.992 ± 0.053
A0A087WVC1|Q9BQ39 (UniProt Q9BQ39),–,–,–,–,–,–,1.19 ± 0.051,1.25 ± 0.055,1.4 ± 0.089,1.89 ± 0.23,2.57 ± 0.26,3.29 ± 0.3,3.85 ± 0.56,4.45 ± 0.47
A0A087WT20|B3KME9 and related entries (UniProt Q9NV06),–,–,–,–,–,–,1.01 ± 0.16,0.951 ± 0.17,0.98 ± 0.17,0.949 ± 0.18,0.964 ± 0.15,0.884 ± 0.13,0.905 ± 0.068,0.933 ± 0.13
A0A087WVD7|Q9Y3D8 and related entries (UniProt Q9Y3D8),–,–,–,–,–,–,0.963 ± 0.02,0.876 ± 0.0094,0.983 ± 0.065,0.984 ± 0.073,0.967 ± 0.082,0.956 ± 0.11,0.896 ± 0.12,0.948 ± 0.065
A0A024R216|Q9Y3E1 (UniProt Q9Y3E1),–,–,–,–,–,–,0.932 ± 0.067,0.958 ± 0.1,1.02 ± 0.096,1.01 ± 0.12,0.991 ± 0.14,1.04 ± 0.13,1.04 ± 0.13,1.07 ± 0.093
A0A087WWF6|F8W8R3 and related entries (UniProt P49005),–,–,–,–,–,–,1 ± 0.043,1.01 ± 0.025,0.945 ± 0.052,0.941 ± 0.028,0.969 ± 0.058,0.937 ± 0.064,0.931 ± 0.027,0.935 ± 0.037
A0A087WTT6|P62273 and related entries (UniProt P62273),–,–,–,–,–,–,0.92 ± 0.14,0.977 ± 0.14,1.16 ± 0.29,1.1 ± 0.19,0.953 ± 0.29,0.957 ± 0.27,0.663 ± 0.15,0.939 ± 0.29
A0A024QZP7|P06493 (UniProt P06493),–,–,–,–,–,–,0.954 ± 0.049,0.985 ± 0.034,0.925 ± 0.044,0.909 ± 0.029,0.908 ± 0.055,0.9 ± 0.046,0.886 ± 0.06,0.875 ± 0.058
A0A075B7C0|A0A0C4DGQ5|K7EIV0 and related entries (UniProt P04632),–,–,–,–,–,–,0.946 ± 0.02,0.932 ± 0.089,0.944 ± 0.054,0.89 ± 0.045,0.875 ± 0.11,0.882 ± 0.043,0.844 ± 0.11,0.868 ± 0.071

# Quoted from the listing.
# For NP40-soluble protein abundance (guanosine triphosphate; concentration: 0.1mM), A0A075B7C0|A0A0C4DGQ5|K7EIV0 and related entries (UniProt P04632) shows 0.946 ± 0.02
# For NP40-soluble protein abundance (guanosine triphosphate; concentration: 10mM), A0A087WU02|F8VPA6 and related entries (UniProt Q96RQ1) shows 0.859 ± 0.052

# Reference: the supplement of paper PMC6411743
